In paper PMC7666158 one finds binding data, which are given here for one molecule.

The chains behind the UniProt entries cited, without tags or fusion partners. Where a name states a change or a piece, a line headed by the entry shows the natural chain unless it says otherwise.
UniProt P45983: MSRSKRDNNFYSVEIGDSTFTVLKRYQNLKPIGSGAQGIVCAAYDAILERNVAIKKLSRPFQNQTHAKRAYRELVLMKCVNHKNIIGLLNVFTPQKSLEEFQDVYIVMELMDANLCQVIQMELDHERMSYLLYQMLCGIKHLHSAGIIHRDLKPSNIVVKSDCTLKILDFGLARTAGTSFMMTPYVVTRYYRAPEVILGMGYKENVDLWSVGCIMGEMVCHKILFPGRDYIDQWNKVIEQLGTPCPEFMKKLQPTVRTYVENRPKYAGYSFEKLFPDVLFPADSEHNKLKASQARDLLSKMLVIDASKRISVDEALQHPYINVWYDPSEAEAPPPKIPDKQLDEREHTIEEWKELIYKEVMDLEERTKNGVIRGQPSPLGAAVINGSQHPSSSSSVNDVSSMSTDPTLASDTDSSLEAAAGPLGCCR

The experiment concerns the target JNK1-dc20 (JNK1 with the C-terminal 20 residues truncated) (human) (UniProt P45983). Kind of experiment: fluorescence polarisation; competitive: 50 nM CF-evJIP with JNK1 at ~60–80% complex, titrated with unlabeled competitor; 20 mM Tris pH 8.0, 100 mM NaCl, 0.05% Brij35P, 2 mM TCEP; 384-well plates; both purified.

Results are given in words; binding and its absence hold for the method and conditions named. Binding can be weak; no strength is given.

Consider PPRRPKRPTSLDLPSTPSL (carboxyfluorescein (CF) on the N-terminus) [CF-evJIP], for which the binding result was “binds”.
